According to publication PMC10808738:
Results are given in words; binding and its absence hold for the method and conditions named. In cells and extracts the contact can be indirect. Some results given as binding are weak or reduced against the parent protein; the word gives no strength.

Amino acid sequences for entries named in this document (tags omitted).
UniProt O00429: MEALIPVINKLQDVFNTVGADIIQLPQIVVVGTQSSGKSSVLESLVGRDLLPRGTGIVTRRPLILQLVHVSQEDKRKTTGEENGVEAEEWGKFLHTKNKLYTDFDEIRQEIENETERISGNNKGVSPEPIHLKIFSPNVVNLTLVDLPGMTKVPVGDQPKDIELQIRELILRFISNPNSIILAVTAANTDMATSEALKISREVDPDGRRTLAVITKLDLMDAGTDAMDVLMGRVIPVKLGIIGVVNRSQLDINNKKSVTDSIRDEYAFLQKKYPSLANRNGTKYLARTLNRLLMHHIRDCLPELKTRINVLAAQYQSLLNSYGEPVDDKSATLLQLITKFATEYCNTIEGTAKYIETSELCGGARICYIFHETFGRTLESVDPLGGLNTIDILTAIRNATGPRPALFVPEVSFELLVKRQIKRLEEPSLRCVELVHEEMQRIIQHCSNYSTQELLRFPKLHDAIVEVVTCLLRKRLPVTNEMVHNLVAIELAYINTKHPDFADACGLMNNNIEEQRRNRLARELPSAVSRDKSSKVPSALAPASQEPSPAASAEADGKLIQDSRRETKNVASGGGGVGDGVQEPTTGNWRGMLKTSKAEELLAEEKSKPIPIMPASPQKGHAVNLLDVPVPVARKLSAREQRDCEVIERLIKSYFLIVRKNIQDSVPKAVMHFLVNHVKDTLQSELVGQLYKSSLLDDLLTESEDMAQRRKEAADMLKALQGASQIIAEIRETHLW

How the values were obtained:
Experiment in all cases: co-IP; BEAS-2B cells with or without rmDEK (1 ug/ml, 24 h), lysed in IP Lysis Buffer (Pierce kit); anti-DRP1 or control IgG on crosslinked protein A/G agarose beads, overnight at 4 C; Western blot
[1] = target: T1, AAA domain-containing protein 3A (ATAD3A) (human (endogenous in BEAS-2B)) (UniProt Q9NVI7)
T1 sequence: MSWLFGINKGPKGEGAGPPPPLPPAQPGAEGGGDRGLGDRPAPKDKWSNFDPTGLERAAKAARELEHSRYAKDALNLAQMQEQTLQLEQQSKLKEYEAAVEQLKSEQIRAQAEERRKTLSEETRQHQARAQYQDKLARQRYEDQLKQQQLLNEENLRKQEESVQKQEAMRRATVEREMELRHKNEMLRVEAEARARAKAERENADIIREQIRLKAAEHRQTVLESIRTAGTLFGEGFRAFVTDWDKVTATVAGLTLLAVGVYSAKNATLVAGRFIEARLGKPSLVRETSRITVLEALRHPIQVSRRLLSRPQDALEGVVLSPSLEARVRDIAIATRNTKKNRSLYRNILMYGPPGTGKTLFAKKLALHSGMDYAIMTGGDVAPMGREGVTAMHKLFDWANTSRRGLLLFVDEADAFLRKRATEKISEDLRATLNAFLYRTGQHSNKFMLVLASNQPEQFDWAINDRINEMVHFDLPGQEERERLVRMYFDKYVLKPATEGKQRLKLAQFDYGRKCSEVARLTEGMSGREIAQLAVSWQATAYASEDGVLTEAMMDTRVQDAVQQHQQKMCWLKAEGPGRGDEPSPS

[2] = target: dynamin-related protein 1 (DRP1) (human (endogenous in BEAS-2B)) (UniProt O00429)
[3] = target: dynamin-related protein 1 (DRP1) (human (endogenous in BEAS-2B)), O00429; details: remark: other sources report otherwise

B1: DEK protein (protein, UniProt P35659 1-375)
chain: MSASAPAAEGEGTPTQPASEKEPEMPGPREESEEEEDEDDEEEEEEEKEKSLIVEGKREKKKVERLTMQVSSLQREPFTIAQGKGQKLCEIERIHFFLSKKKTDELRNLHKLLYNRPGTVSSLKKNVGQFSGFPFEKGSVQYKKKEEMLKKFRNAMLKSICEVLDLERSGVNSELVKRILNFLMHPKPSGKPLPKSKKTCSKGSKKERNSSGMARKAKRTKCPEILSDESSSDEDEKKNKEESSDDEDKESEEEPPKKTAKREKPKQKATSKSKKSVKSANVKKADSSTTKKNQNSSKKESESEDSSDDEPLIKKLKKPPTDEELKETIKKLLASANLEEVTMKQICKKVYENYPTYDLTERKDFIKTTVKELIS
[1]
  binding: binds
[2]
  binding: binds

B2: AAA domain-containing protein 3A (ATAD3A), Q9NVI7 1-586 (protein)
chain: T1 sequence
[3]
  binding: binds
